Experimental findings from PMC4264864 are described below.

In the test the target is His-tagged BvgS (integral inner membrane sensor protein of the BvgA/S two-component system) (B. pertussis) (UniProt P16575). Put plainly: non-reducing SDS-PAGE and Western blot of Ni-NTA-purified protein; His-BvgS purified on Ni-NTA from B. pertussis BPSH (also BPSH-KOcaps, BPSH-ΔkpsT, BPSH-ΔkpsTcom); Laemmli buffer without β-mercaptoethanol, no heat; blotted with anti-His or anti-BvgS; high MW band >260 kDa, much lower from BPSH-KOcaps and BPSH-ΔkpsT.

These are yes or no findings as the source states them, for the method shown. Some entries that bind do so weakly or less than the wild type. Tags and fused reporters may be left off the sequences shown.

B1: His-tagged BvgS (integral inner membrane sensor protein of the BvgA/S two-component system) (protein, UniProt P16575 33-1238)
chain: SQELTLVGKAAVPDVEVALDGDDWRWLARKRVLTLGVYAPDIPPFDVTYGERYEGLTADYMAIIAHNLGMQAKVLRYPTREQALSALESGQIDLIGTVNGTDGRQQSLRLSVPYAADHPVIVMPIGARHVPASNLAGQRLAVDINYLPKETLARAYPQATLHYFPSSEQALAAVAYGQADVFIGDALTTSHLVSQSYFNDVRVVAPAHIATGGESFGVRADNTRLLRVVNAVLEAIPPSEHRSLIYRWGLGSSISLDFAHPAYSAREQQWMADHPVVKVAVLNLFAPFTLFRTDEQFGGISAAVLQLLQLRTGLDFEIIGVDTVEELIAKLRSGEADMAGALFVNSARESFLSFSRPYVRNGMVIVTRQDPDAPVDADHLDGRTVALVRNSAAIPLLQRRYPQAKVVTADNPSEAMLMVANGQADAVVQTQISASYYVNRYFAGKLRIASALDLPPAEIALATTRGQTELMSILNKALYSISNDELASIISRWRGSDGDPRTWYAYRNEIYLLIGLGLLSALLFLSWIVYLRRQIRQRKRAERALNDQLEFMRVLIDGTPNPIYVRDKEGRMLLCNDAYLDTFGVTADAVLGKTIPEANVVGDPALAREMHEFLLTRVAAEREPRFEDRDVTLHGRTRHVYQWTIPYGDSLGELKGIIGGWIDITERAELLRKLHDAKESADAANRAKTTFLATMSHEIRTPMNAIIGMLELALLRPTDQEPDRQSIQVAYDSARSLLELIGDILDIAKIEAGKFDLAPVRTALRVLPEGAIRVFDGLARQKGIELVLKTDIVGVDDVLIDPLRMKQVLSNLVGNAIKFTTEGQVVLAVTARPDGDAAHVQFSVSDTGCGISEADQRQLFKPFSQVGGSAEAGPAPGTGLGLSISRRLVELMGGTLVMRSAPGVGTTVSVDLRLTMVEKSVQAAPPAAATAATPSKPQVSLRVLVVDDHKPNLMLLRQQLDYLGQRVIAADSGEAALALWREHAFDVVITDCNMPGISGYELARRIRAAEAAPGYGRTRCILFGFTASAQMDEAQRCRAAGMDDCLFKPIGVDALRQRLNEAVARAALPTPPSPQAAAPATDDATPTAFSAESILALTQNDEALIRQLLEEVIRTNRADVDQLQKLHQQADWPKVSDMAHRLAGGARVVDAKAMIDTVLALEKKAQGQAGPSPEIDGLVRTLAAQSAALETQLRAWLEQRPHQDQP
As to B1, the binding entry is recorded as “binds”.
